Measurements reported in PubChem BioAssay AID602196 (INSERM, 2012)

Aim: 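Modifiers of cisplatin sensitivity in A549 cells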
Cells: human A549 lung cancer cells
Knock-down reagent: siRNA pair against human genes
Timing: 48 h transfection before cisplatin; time from cisplatin to read-out not stated
Treatment: cisplatin at a dose killing half of control-siRNA cells; exact dose and duration not given
Measurement: 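Cisplatin cell death as a shift from the 50% death seen with control siRNA; siRNAs toxic or growth-blocking alone scored 0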
Direction: two-siRNA summed score (-2 to +2): higher = both siRNAs protect from cisplatin killing; -2 means both sensitise; mean protection from cisplatin (shift in death) and protection from cisplatin (shift in death), siRNA C and protection from cisplatin (shift in death), siRNA D: higher = protection from cisplatin killing
Hit rule: 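siRNAs harmful alone (LDH or WST-1) get 0; others get +1 for less and -1 for more cisplatin killing; genes are active when the two siRNAs give the same sign, summing to ±2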
Calls: active = both siRNAs shift cisplatin killing the same way; inactive = no consistent shift, or siRNA harmful alone
In all, the deposit lists about 23,000 reagents; shown is a part drawn at random. In the full data, 455 (2%) are marked active. 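Active includes both protection and sensitisation; some change values fall well beyond the stated -50 to +50 range.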 A number with no mark means an inactive call. Reagent sequences are not shown. The record does not give: the amount of reagent.

| target | PubChem SID | two-siRNA summed score (-2 to +2) | mean protection from cisplatin (shift in death) (%) | protection from cisplatin (shift in death), siRNA C (%) | protection from cisplatin (shift in death), siRNA D (%) |
| --- | --- | --- | --- | --- | --- |
| NDUFA11 | SID131514197 | 0 | 7.5 | 11.1 | 3.9 |
| CSNK1D | SID131501064 | -1 | -12.7 | 8.2 | -33.6 |
| MAS1 | SID131514581 | 0 | 8 | 3.3 | 12.7 |
| PACRG | SID131508847 | 0 | 1.5 | 0.2 | 2.9 |
| MAGEA5P | SID131515396 | 0 | 9.1 | 8.9 | 9.3 |
| LOC388173 | SID131519138 | 1 | 2.8 | -13.9 | 19.5 |
| TOGARAM2 | SID131521989 | 1 | 15.7 | 4.3 | 27.1 |
| GLT8D2 | SID131509353 | 0 | 2.1 | 4.9 | -0.7 |
| MAPKAPK2 | SID131521990 | 1 | 15.7 | 10.4 | 21.1 |
| ASPH | SID131510785 | 0 | 3.6 | 4.6 | 2.7 |
| SUN3 | SID131510880 | 0 | 3.7 | 8.8 | -1.3 |
| ANGPT4 | SID131502799 | 0 | -36.3 | -37.8 | -34.9 |
| NCR2 | SID131508451 | 0 | 1.1 | -4.6 | 6.8 |
| INMT | SID131522595 | 1 | 20.3 | 24.9 | 15.7 |
| IRX2-DT | SID131505962 | 0 | -2.3 | -10.5 | 6 |
| OR2B11 | SID131500376 | -2 (active) | -17 | -15.6 | -18.3 |
| TP53TG3 | SID131522339 | 1 | 17.8 | 4.5 | 31.1 |
| HISLA | SID131515918 | 0 | 9.9 | 11.2 | 8.6 |
| TBCK | SID131508240 | 0 | 0.8 | 15.3 | -13.6 |
| DPH6 | SID131511443 | 0 | 4.4 | 7.1 | 1.7 |
| TIGD1 | SID131509402 | 0 | 2.1 | 1.2 | 3.1 |
| NCKAP5L | SID131517153 | 0 | 12.5 | 0.1 | 24.9 |
| PBX1 | SID131501420 | -1 | -9.9 | -14.8 | -4.9 |
| AEBP2 | SID131509102 | 0 | 1.8 | 1.1 | 2.5 |
| LOC441336 | SID131510775 | 0 | 3.6 | -0.5 | 7.7 |
| LOC133748 | SID131512111 | 0 | 5.1 | 7.1 | 3.1 |
| NPAS2 | SID131503026 | 0 | -15.6 | -30.5 | -0.8 |
| THG1L | SID131507702 | 0 | 0.2 | 7.7 | -7.3 |
| FBXO2 | SID131504922 | 0 | -4.2 | -1.4 | -6.9 |
| TRIM6 | SID131519603 | 1 | 6.6 | -5.2 | 18.4 |
| AK4 | SID131502361 | -1 | -3.1 | -13.4 | 7.2 |
| AK4 | SID131519239 | 1 | 4.1 | 18.8 | -10.7 |
| CAMK4 | SID131523025 | 2 (active) | 17.3 | 22.1 | 12.4 |
| LOC440928 | SID131518267 | 0 | 17.7 | 30.8 | 4.6 |
| IRF8 | SID131523218 | 2 (active) | 28 | 19 | 37 |
| ARL4AP1 | SID131523000 | 2 (active) | 16.3 | 21.3 | 11.3 |
| ATP7B | SID131507145 | 0 | -0.5 | -10.7 | 9.7 |
| SCGB1D4 | SID131508500 | 0 | 1.1 | -2.3 | 4.5 |
| IGDCC3 | SID131507488 | 0 | -0.1 | -4 | 3.8 |
| HEATR3 | SID131515218 | 0 | 8.8 | 9 | 8.7 |
| GBA1 | SID131508545 | 0 | 1.2 | -17 | 19.3 |
| LOC440858 | SID131522151 | 1 | 16.5 | 20.4 | 12.5 |
| LOC389671 | SID131504422 | 0 | -5.5 | -2.7 | -8.2 |
| LOC441883 | SID131518855 | 0 | 32.3 | 25 | 39.7 |
| LOC401884 | SID131521023 | 1 | 11.9 | 10.7 | 13.1 |
| ACY1 | SID131520323 | 1 | 9.5 | -8.9 | 27.9 |
| NDUFB4 | SID131509232 | 0 | 1.9 | -5.6 | 9.5 |
| LOC342357 | SID131518230 | 0 | 17.4 | 23.6 | 11.1 |
| IL26 | SID131505309 | 0 | -3.4 | -21.6 | 14.9 |
| DCST2 | SID131521116 | 1 | 12.2 | 11.9 | 12.5 |
| LOC441792 | SID131513544 | 0 | 6.7 | 20.8 | -7.4 |
| SLC39A7 | SID131513535 | 0 | 6.7 | 11.6 | 1.8 |
| LOC342972 | SID131523056 | 2 (active) | 18 | 21.4 | 14.6 |
| LOC391475 | SID131511606 | 0 | 4.5 | 4.6 | 4.5 |
| LAMA1 | SID131517707 | 0 | 14.4 | 34.2 | -5.3 |
| MYCT1 | SID131515610 | 0 | 9.4 | 12.3 | 6.6 |
| CBLN1 | SID131520186 | 1 | 9 | 6.4 | 11.5 |

Hits, among the entries above:
| target | PubChem SID | two-siRNA summed score (-2 to +2) | mean protection from cisplatin (shift in death) (%) | protection from cisplatin (shift in death), siRNA C (%) | protection from cisplatin (shift in death), siRNA D (%) |
| --- | --- | --- | --- | --- | --- |
| OR2B11 | SID131500376 | -2 (active) | -17 | -15.6 | -18.3 |
| CAMK4 | SID131523025 | 2 (active) | 17.3 | 22.1 | 12.4 |
| IRF8 | SID131523218 | 2 (active) | 28 | 19 | 37 |
| ARL4AP1 | SID131523000 | 2 (active) | 16.3 | 21.3 | 11.3 |
| LOC342972 | SID131523056 | 2 (active) | 18 | 21.4 | 14.6 |
